{
  "source": "the supplement of paper PMC8728848",
  "experiment_in_all_cases": "glycan array binding signal (z-score within array); higher = stronger binding",
  "details_in_all_cases": "glycan notation: IUPAC condensed, linker removed",
  "key": {"[1]": {"molecular_target": "Fuc(a1-2)[GalNAc(a1-3)]Gal(b1-3)GlcNAc(b1-6)GalNAc", "method_in_brief": "(§1)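 The Consortium for Functional Glycomics database supplied 3228 glycan arrays, of which those lacking an available protein sequence were dropped. The binding signal, a within-array Z-score, was averaged across arrays of the same protein sequence and across linkers. Negative scores can be read as non-binding.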"}, "[2]": {"molecular_target": "Fuc(a1-2)[GalNAc(a1-3)]Gal(b1-4)Glc", "method_in_brief": "as §1"}, "[3]": {"molecular_target": "Fuc(a1-2)[GalNAc(a1-3)]Gal(b1-4)GlcNAc", "method_in_brief": "as §1"}, "[4]": {"molecular_target": "Fuc(a1-2)[GalNAc(a1-3)]Gal(b1-4)GlcNAc(b1-2)Man", "method_in_brief": "as §1"}, "[5]": {"molecular_target": "Fuc(a1-2)[GalNAc(a1-3)]Gal(b1-4)GlcNAc(b1-2)Man(a1-3)[Fuc(a1-2)[GalNAc(a1-3)]Gal(b1-4)GlcNAc(b1-2)Man(a1-6)]Man(b1-4)GlcNAc(b1-4)GlcNAc", "method_in_brief": "as §1"}, "[6]": {"molecular_target": "Fuc(a1-2)[GalNAc(a1-3)]Gal(b1-4)GlcNAc(b1-2)Man(a1-3)[Fuc(a1-2)[GalNAc(a1-3)]Gal(b1-4)GlcNAc(b1-2)Man(a1-6)]Man(b1-4)GlcNAc(b1-4)[Fuc(a1-6)]GlcNAc", "method_in_brief": "as §1"}, "[7]": {"molecular_target": "Fuc(a1-2)[GalNAc(a1-3)]Gal(b1-4)GlcNAc(b1-3)Gal(b1-4)GlcNAc", "method_in_brief": "as §1"}, "[8]": {"molecular_target": "Fuc(a1-2)[GalNAc(a1-3)]Gal(b1-4)GlcNAc(b1-3)Gal(b1-4)GlcNAc(b1-3)Gal(b1-4)GlcNAc", "method_in_brief": "as §1"}, "[9]": {"molecular_target": "Fuc(a1-2)[GalNAc(a1-3)]Gal(b1-4)GlcNAc(b1-3)GalNAc", "method_in_brief": "as §1"}, "[10]": {"molecular_target": "Fuc(a1-2)[GalNAc(a1-3)]Gal(b1-4)GlcNAc(b1-3)[Fuc(a1-2)[GalNAc(a1-3)]Gal(b1-4)GlcNAc(b1-6)]GalNAc", "method_in_brief": "as §1"}, "[11]": {"molecular_target": "Fuc(a1-2)[GalNAc(a1-3)]Gal(b1-4)GlcNAc(b1-6)GalNAc", "method_in_brief": "as §1"}, "[12]": {"molecular_target": "Fuc(a1-2)[GalNAc(a1-3)]Gal(b1-4)[Fuc(a1-3)]GlcNAc", "method_in_brief": "as §1"}, "[13]": {"molecular_target": "Fuc(a1-2)[GalNAc(a1-3)]Gal(b1-4)[Fuc(a1-3)]GlcNAc(b1-3)GalNAc", "method_in_brief": "as §1"}, "[14]": {"molecular_target": "Fuc(a1-2)[GalNAc(a1-4)]Gal(b1-4)GlcNAc", "method_in_brief": "as §1"}, "[15]": {"molecular_target": "Fuc(a1-2)[GalNAc(b1-3)]Gal", "method_in_brief": "as §1"}, "Fuc(a1-3)GlcNAc": {"molecular_target": "Fuc(a1-3)GlcNAc", "method_in_brief": "as §1"}, "[16]": {"molecular_target": "Fuc(a1-3)[Gal(b1-4)]Glc6S", "method_in_brief": "as §1"}, "[17]": {"molecular_target": "Fuc(a1-3)[Gal(b1-4)]GlcNAc", "method_in_brief": "as §1"}, "[18]": {"molecular_target": "Fuc(a1-3)[Gal(b1-4)]GlcNAc(b1-2)Man", "method_in_brief": "as §1"}, "[19]": {"molecular_target": "Fuc(a1-3)[Gal(b1-4)]GlcNAc(b1-2)Man(a1-3)[Fuc(a1-3)[Gal(b1-4)]GlcNAc(b1-2)Man(a1-6)]Man(b1-4)GlcNAc(b1-4)GlcNAc", "method_in_brief": "as §1"}, "[20]": {"molecular_target": "Fuc(a1-3)[Gal(b1-4)]GlcNAc(b1-2)Man(a1-3)[Fuc(a1-3)[Gal(b1-4)]GlcNAc(b1-2)Man(a1-6)]Man(b1-4)GlcNAc(b1-4)[Fuc(a1-6)]GlcNAc", "method_in_brief": "as §1"}, "[21]": {"molecular_target": "Fuc(a1-3)[Gal(b1-4)]GlcNAc(b1-3)Gal(b1-3)[Fuc(a1-4)]GlcNAc", "method_in_brief": "as §1"}, "[22]": {"molecular_target": "Fuc(a1-3)[Gal(b1-4)]GlcNAc(b1-3)Gal(b1-4)[Fuc(a1-3)]GlcNAc", "method_in_brief": "as §1"}, "[23]": {"molecular_target": "Fuc(a1-3)[Gal(b1-4)]GlcNAc(b1-3)Gal(b1-4)[Fuc(a1-3)]GlcNAc(b1-3)Gal(b1-4)[Fuc(a1-3)]GlcNAc", "method_in_brief": "as §1"}, "[24]": {"molecular_target": "Fuc(a1-3)[Gal(b1-4)]GlcNAc(b1-3)GalNAc", "method_in_brief": "as §1"}, "[25]": {"molecular_target": "Fuc(a1-3)[Gal(b1-4)]GlcNAc(b1-6)GalNAc", "method_in_brief": "as §1"}, "[26]": {"molecular_target": "Fuc(a1-3)[Gal(b1-4)]GlcNAc(b1-6)[Gal(b1-3)GlcNAc(b1-3)]Gal(b1-4)Glc", "method_in_brief": "as §1"}, "[27]": {"molecular_target": "Fuc(a1-3)[Gal(b1-4)]GlcNAc6S", "method_in_brief": "as §1"}, "[28]": {"molecular_target": "Fuc(a1-3)[Gal3S(b1-4)]Glc", "method_in_brief": "as §1"}, "[29]": {"molecular_target": "Fuc(a1-3)[Gal3S(b1-4)]GlcNAc", "method_in_brief": "as §1"}, "[30]": {"molecular_target": "Fuc(a1-3)[Gal3S(b1-4)]GlcNAc6S", "method_in_brief": "as §1"}, "[31]": {"molecular_target": "Fuc(a1-3)[GalNAc(b1-4)]GlcNAc", "method_in_brief": "as §1"}, "[32]": {"molecular_target": "Fuc(a1-3)[GalNAc(b1-4)]GlcNAc6S", "method_in_brief": "as §1"}, "Fuc(a1-4)GlcNAc": {"molecular_target": "Fuc(a1-4)GlcNAc", "method_in_brief": "as §1"}, "Fuc(b1-3)GlcNAc": {"molecular_target": "Fuc(b1-3)GlcNAc", "method_in_brief": "as §1"}, "Gal(a1-2)Gal": {"molecular_target": "Gal(a1-2)Gal", "method_in_brief": "as §1"}, "Gal(a1-3)Gal": {"molecular_target": "Gal(a1-3)Gal", "method_in_brief": "as §1"}},
  "note": "Some of the results follow.",
  "data": [
    {"binder": "EUL D1A first (Oryza sativa) (protein) MFGFGHHHNQAPAAPSDPNQIFKIFCRANENYCLTVRDSAVVLAPVNPKDEHQHWFKDMRFSTKVKDGEGMPAFALVNKATGLAVKHSLGQSHPVKLVPFNPEYEDASVLWTESKDVGKGFRCIRMVNNTRLNLDAFHGDKDHGGVRDGTTVVLWEWCKGDNQSWKILPWGPEAHSSSPGAATILEQKLISEEDLNSAVDHHHHHH", "values": [
      {"measurement": "glycan array binding signal (z-score)", "setting": "[1]", "value": -0.602},
      {"measurement": "glycan array binding signal (z-score)", "setting": "[2]", "value": 0.261},
      {"measurement": "glycan array binding signal (z-score)", "setting": "[3]", "value": 0.165},
      {"measurement": "glycan array binding signal (z-score)", "setting": "[4]", "value": -0.989},
      {"measurement": "glycan array binding signal (z-score)", "setting": "[5]", "value": -0.649},
      {"measurement": "glycan array binding signal (z-score)", "setting": "[6]", "value": 0.095},
      {"measurement": "glycan array binding signal (z-score)", "setting": "[7]", "value": -0.61},
      {"measurement": "glycan array binding signal (z-score)", "setting": "[8]", "value": 1.71},
      {"measurement": "glycan array binding signal (z-score)", "setting": "[9]", "value": -1.21},
      {"measurement": "glycan array binding signal (z-score)", "setting": "[10]", "value": -0.458},
      {"measurement": "glycan array binding signal (z-score)", "setting": "[11]", "value": -0.756},
      {"measurement": "glycan array binding signal (z-score)", "setting": "[12]", "value": -0.527},
      {"measurement": "glycan array binding signal (z-score)", "setting": "[13]", "value": 1.44},
      {"measurement": "glycan array binding signal (z-score)", "setting": "[14]", "value": 1.55},
      {"measurement": "glycan array binding signal (z-score)", "setting": "[15]", "value": -0.397},
      {"measurement": "glycan array binding signal (z-score)", "setting": "Fuc(a1-3)GlcNAc", "value": 0.839},
      {"measurement": "glycan array binding signal (z-score)", "setting": "[16]", "value": -0.554},
      {"measurement": "glycan array binding signal (z-score)", "setting": "[17]", "value": -0.776},
      {"measurement": "glycan array binding signal (z-score)", "setting": "[18]", "value": 3.34},
      {"measurement": "glycan array binding signal (z-score)", "setting": "[19]", "value": 0.332},
      {"measurement": "glycan array binding signal (z-score)", "setting": "[20]", "value": 0.82},
      {"measurement": "glycan array binding signal (z-score)", "setting": "[21]", "value": -0.741},
      {"measurement": "glycan array binding signal (z-score)", "setting": "[22]", "value": -1.08},
      {"measurement": "glycan array binding signal (z-score)", "setting": "[23]", "value": 0.528},
      {"measurement": "glycan array binding signal (z-score)", "setting": "[24]", "value": 0.468},
      {"measurement": "glycan array binding signal (z-score)", "setting": "[25]", "value": 1.97},
      {"measurement": "glycan array binding signal (z-score)", "setting": "[26]", "value": -1.39},
      {"measurement": "glycan array binding signal (z-score)", "setting": "[27]", "value": 0.976},
      {"measurement": "glycan array binding signal (z-score)", "setting": "[28]", "value": 0.069},
      {"measurement": "glycan array binding signal (z-score)", "setting": "[29]", "value": 0.583},
      {"measurement": "glycan array binding signal (z-score)", "setting": "[30]", "value": -0.544},
      {"measurement": "glycan array binding signal (z-score)", "setting": "[31]", "value": 1.05},
      {"measurement": "glycan array binding signal (z-score)", "setting": "[32]", "value": -1.36},
      {"measurement": "glycan array binding signal (z-score)", "setting": "Fuc(a1-4)GlcNAc", "value": -0.654},
      {"measurement": "glycan array binding signal (z-score)", "setting": "Fuc(b1-3)GlcNAc", "value": -0.447},
      {"measurement": "glycan array binding signal (z-score)", "setting": "Gal(a1-2)Gal", "value": -0.848},
      {"measurement": "glycan array binding signal (z-score)", "setting": "Gal(a1-3)Gal", "value": -0.25}
    ]}
  ]
}
